# Reference: PubChem BioAssay AID504467 (National Center for Advancing Translational Sciences (NCATS), 2011)
# In all, about 330,000 compounds went through this assay and about 7,700 (2.3%) were called active. The shares of active, inactive and inconclusive entries below differ from those in the screen. Calls follow the shape of the dose curve; as a rule, active = well fitted inhibition curve with a large enough effect; inconclusive = small, poorly fitted or top-dose-only effect, or effect the other way; inactive = flat fitted curve, though single readings scatter. A potency beside an inconclusive call is a rough fit, not a confirmed value.
# Assay: qHTS screen for small molecules that inhibit ELG1-dependent DNA repair in human embryonic kidney (HEK293T) cells expressing luciferase-tagged ELG1; also: nearly all actives have a fitted effect of over 55% in size
# Details: HEK293T ELG1-luciferase reporter, luminescence, 16 h, DNA damage induced by 5-fluorouridine; activity change, negative = inhibition: at 46.1 µM (top of the series)
# In short: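 Luminescence from the luciferase reporter, measured 30 min after ONE-Glo reagent at room temperature, was the read-out. Beforehand, 2,000 cells per well were exposed for 16 hr at 37 °C to 5-fluorouridine together with compound or vehicle.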
# % is scaled to controls: 0 for no effect and ±100 for the full control effect; potency is read from the fitted curve at half-maximal effect.
Compound,"activity change, negative = inhibition",Potency
Cn1c(-c2sc3cc(C(F)(F)F)cnc3c2-c2ccccn2)n[nH]c1=S,inactive: 12.4%,
CN(Cc1ccccc1)/C(=N/O)c1cccc(Cl)c1,inactive: -2.14%,
CCOc1ccc2oc(C(=O)Nc3nccs3)c(C)c2c1,,"inconclusive: 0.92 µM [activator, partial curve]"
O=C(Cn1nnc(-c2cccs2)n1)OC1CCCCC1,inactive: -3.41%,
CC1(C)O[C@@H]2[C@H](O1)[C@@H](COS(=O)(=O)O)O[C@H]2n1cc(Br)c(=O)[nH]c1=O,,"inconclusive: 16.4 µM [activator, partial curve, poor fit]"
COC(=O)C1=C(C)Nc2[nH]c(=S)[nH]c(=O)c2C1c1ccc(OC)cc1 (configuration not stated),inactive: 3.07%,
COc1ccc(OC(C)C(=O)N(C)Cc2nc(-c3ccccc3)no2)cc1 (configuration not stated),inactive: -6.28%,
CC/C=C/C(=O)N1CC2(CC(c3cccc(NC(=O)CC(c4ccccc4)c4ccccc4)c3)=NO2)C[C@@H]1C(N)=O (some centres not stated),,"inconclusive: 29.1 µM [inhibitor, single point]"
CCCOc1ccc(NC(=O)CC2C(=O)N(Cc3ccccc3)C(=S)N2Cc2cccs2)cc1 (configuration not stated),,"inconclusive: 16.4 µM [inhibitor, single point]"
COc1ccc([C@H]2CC(=O)C=C(c3ccc(SC)cc3)C2)cc1OC,,"inconclusive: 7.3 µM [inhibitor, partial curve]"
C=CCC[C@H](Cc1ccc(F)cc1)C(=O)OC[C@@H](Cc1c[nH]c2ccccc12)NC(=O)[C@H](CC=C)CC(=O)N[C@H](CO)Cc1ccccc1,,"inconclusive: 23.1 µM [inhibitor, single point]"
COc1ccc2[nH]c(C(=O)N3CCNCC3)cc2c1OC,,"inconclusive: 29.1 µM [activator, single point]"
Cn1ccc(C(=O)Nc2ccc3c(c2)OCCO3)n1,,"inconclusive: 4.11 µM [activator, full curve]"
COc1cc(/C=C/c2ccc3c([N+](=O)[O-])cccc3n2)ccc1OCC(=O)O,inactive: 13.6%,
CCCc1nn2c(=O)cc(CSCC(=O)Nc3ccc(C)cc3)nc2s1,inactive: 10.9%,
Cc1cccc(CC2CC(=O)N(c3nc4ccccc4s3)C2=O)c1 (configuration not stated),inactive: -5.09%,
Cc1cc(C)c2[nH]c(O)c(N=Nc3ccc(C(=O)O)cc3)c2c1,,"inconclusive: 23.1 µM [activator, partial curve]"
COc1ccccc1-n1nnnc1SCC(=O)NC1CCCCC1,inactive: -3.89%,
CN(c1cccc(NC(=O)c2ccc(Cl)c(S(=O)(=O)Nc3ccccc3)c2)c1)S(C)(=O)=O,,"inconclusive: 29.1 µM [inhibitor, single point]"
Cc1cc(C)n2nc(SCC(=O)NC3CCCCC3)nc2n1,inactive: 19.1%,
Cc1nn(Cc2c(Cl)cccc2Cl)c(Cl)c1/C=N/NC(=O)c1cccnc1,,"inconclusive: 25.9 µM [activator, single point]"
CCN(CC)c1ccc2c(c1)C(=O)N(C)C2=O,,"inconclusive: 20.6 µM [activator, partial curve]"
COc1ccc(-c2nnc(SCC(=O)NCCc3ccc(S(N)(=O)=O)cc3)o2)cc1OC,,"inconclusive: 32.6 µM [activator, partial curve, poor fit]"
COc1ccc(-c2nc(NC3=NCCCCC3)sc2C)cc1,inactive: -14.4%,

Compound,"activity change, negative = inhibition",Potency
COc1ccccc1/C=N/NC(=O)c1ccc2c(c1)OCO2,,"inconclusive: 29.1 µM [activator, partial curve, poor fit]"
CC(Sc1ncnc2ccccc12)C(=O)Nc1ccc2c(c1)OCO2 (configuration not stated),inactive: -2.23%,
Cc1cccc(NC(=S)NCC(c2ccccc2)N(C)C)c1 (configuration not stated),inactive: 1.31%,
COc1cc(C(=O)NCCC(C)C)ccc1OCc1ccc(Cl)cc1Cl,,"inconclusive: 25.9 µM [inhibitor, partial curve, poor fit]"
CSc1nc2c(cnn2-c2ccccc2)c(=O)n1N,,"inconclusive: 16.4 µM [activator, partial curve]"
COc1cc(/C=C/C(=O)OCC(=O)NC(=O)NC(C)C)cc(OC)c1OC,,"inconclusive: 20.6 µM [activator, single point]"
COc1cc(S(=O)(=O)N2CCCCC2)ccc1NC(=O)/C=C/c1ccccc1,,"inconclusive: 20.6 µM [inhibitor, single point]"
CN(CC(=O)Nc1ccccc1Cl)C(=O)COC(=O)C1CC1,inactive: 24.5%,
Cc1ccccc1N=CC=C1OC(C)(C)C(C)(C)O1,,"inconclusive: 2.59 µM [inhibitor, full curve]"
Cc1cc(Br)c(OCC(=O)NN)c2c1CCC2,inactive: -13.8%,
Cc1ccc(CNc2ncnc3cc(Cl)ccc23)o1,inactive: -18.5%,
Cc1cccc(/C(N)=N/OC(=O)c2ccc(Br)o2)c1,,"inconclusive: 13 µM [activator, partial curve]"
CCN(C(=O)CSc1nc2ccc(O)cc2c(=O)n1-c1ccc(OC)c(OC)c1)C1CCS(=O)(=O)C1 (configuration not stated),inactive: -3.34%,
CSC1=NC2(CCCCC2)CC12C=CC(=O)C=C2,,"inconclusive: 14.6 µM [activator, partial curve]"
N/C(=N\c1nc(CSc2nc3ccccc3s2)cc(=O)[nH]1)Nc1ccc(F)cc1,,"inconclusive: 29.1 µM [activator, single point]"
COc1ccc(CNC(=O)CN2C(=O)c3ccc([N+](=O)[O-])cc3C2=O)cc1,inactive: -8.44%,
FC(F)(F)c1nnc2c(Sc3ccccc3)nc3ccccc3n12,,"inconclusive: 14.6 µM [activator, partial curve]"
CC1CN(S(=O)(=O)c2ccccc2)CN1C(=O)N1CCOCC1 (configuration not stated),,"inconclusive: 16.4 µM [activator, partial curve, poor fit]"
CSc1nc2ccc(NC(=O)c3c(F)cccc3F)cc2s1,,"inconclusive: 3.66 µM [activator, partial curve]"
O=C(NC1CCCC1)C(c1ccncc1)N(C(=O)c1ccco1)c1ccc(F)c(Cl)c1 (configuration not stated),inactive: -0.442%,
CCOC(=O)CSC1=Nc2ccccc2C2=NC(CC(=O)NCc3ccccc3)C(=O)N12 (configuration not stated),inactive: -2.54%,
Cc1ccc(-c2noc(CCC(=O)Nc3ccc(C)cn3)n2)cc1,inactive: 2.31%,
COc1ccccc1-c1nnc(SCC(=O)NC2CC2)n1C,,"inconclusive: 23.1 µM [activator, single point]"

# One compound at a time (already shown).
# `COc1cc(/C=C/C(=O)OCC(=O)NC(=O)NC(C)C)cc(OC)c1OC` as listed: Potency: inconclusive: 20.6 µM [activator, single point]
# `CC(Sc1ncnc2ccccc12)C(=O)Nc1ccc2c(c1)OCO2` (configuration not stated) as listed: activity change, negative = inhibition: inactive: -2.23%
# `N/C(=N\c1nc(CSc2nc3ccccc3s2)cc(=O)[nH]1)Nc1ccc(F)cc1` as listed: Potency: inconclusive: 29.1 µM [activator, single point]
